Test results as given in paper PMC7862700.
The entries are a selection whose mix differs from that of the whole data set. At the low end of the ranking, values are background and their order means little.

The chains behind the UniProt entries cited, without tags or fusion partners. Where a name states a change or a piece, a line headed by the entry shows the natural chain unless it says otherwise.
UniProt Q9Y603: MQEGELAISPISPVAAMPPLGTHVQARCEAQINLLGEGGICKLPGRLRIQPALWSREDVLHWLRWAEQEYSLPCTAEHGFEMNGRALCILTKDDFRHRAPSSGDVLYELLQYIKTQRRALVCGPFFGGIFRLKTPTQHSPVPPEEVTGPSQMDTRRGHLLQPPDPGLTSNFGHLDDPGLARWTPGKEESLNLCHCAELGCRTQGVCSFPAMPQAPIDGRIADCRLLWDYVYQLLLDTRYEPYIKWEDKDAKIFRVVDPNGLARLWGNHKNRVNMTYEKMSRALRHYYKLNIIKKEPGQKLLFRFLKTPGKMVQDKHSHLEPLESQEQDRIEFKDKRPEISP

What follows are sequences tested against T1, ELF3 (UniProt P78545) (assay: DAPPL (digital affinity profiling via proximity ligation, sequencing)). Settings: 10 mM Tris-HCl pH 7.5, 50 mM NaCl, 1 mM DTT, 4% glycerol, room temperature, 30 min; GST-TFs on glutathione beads, 16-mer random dsDNA library, 0.1% …; high values mean tight binding; double strand, one strand shown; scale: fold enrichment (6-mer frequency, TF over GST control).
T1 sequence: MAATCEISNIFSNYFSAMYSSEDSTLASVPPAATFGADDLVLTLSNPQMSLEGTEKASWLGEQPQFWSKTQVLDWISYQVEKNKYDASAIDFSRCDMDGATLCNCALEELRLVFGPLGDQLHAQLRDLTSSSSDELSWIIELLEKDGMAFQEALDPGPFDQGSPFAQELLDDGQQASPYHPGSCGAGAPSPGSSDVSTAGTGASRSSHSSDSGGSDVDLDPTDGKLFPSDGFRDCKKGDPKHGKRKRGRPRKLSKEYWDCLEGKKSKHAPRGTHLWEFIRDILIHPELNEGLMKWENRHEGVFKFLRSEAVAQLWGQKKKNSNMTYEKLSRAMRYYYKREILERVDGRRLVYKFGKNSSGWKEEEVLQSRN

| Sequence | binding signal |
| --- | --- |
| ATTGGG | 1.22 |
| GAAGAT | 0.864 |
| GTAGCT | 1.18 |
| CATACA | 0.984 |
| TTCGAT | 1.42 |
| TCCCAG | 1.14 |
| GCGTTG | 0.949 |
| TCTTCG | 1.47 |
| CATGGG | 0.994 |
| TGCGGT | 0.977 |
| GTTGCC | 0.781 |
| AAAGTC | 0.961 |
| TAAGCC | 0.976 |
| GAAACA | 1.52 |
| TCTTAT | 1.36 |
| TATGAT | 1.09 |
| TGTAAC | 1.22 |
| TCTAGA | 0.959 |
| ACTCGA | 0.96 |

An excerpt from further up, as a working copy:

| Sequence | binding signal |
| --- | --- |
| GTTGCC | 0.781 |
| AAAGTC | 0.961 |

Each sequence was assayed against ETV7 (UniProt Q9Y603) in the same assay as above. Settings: 10 mM Tris-HCl pH 7.5, 50 mM NaCl, 1 mM DTT, 4% glycerol, room temperature, 30 min; GST-TFs on glutathione beads, 16-mer random dsDNA library, 0.1% …; high values mean tight binding; double strand, one strand shown; scale: fold enrichment (6-mer frequency, TF over GST control).

| Sequence | binding signal |
| --- | --- |
| ATAAGG | 0.975 |
| AAGATC | 1.08 |
| ATGTGG | 1.08 |
| TCTAGG | 1.16 |
| TTAGCA | 1.19 |
| TACACT | 1.49 |
| CCTCCG | 1.2 |
| CCGGTC | 1.22 |
| TAGCGA | 0.953 |
| GCAAAC | 0.909 |
| GGCCTT | 1.34 |
| CCCTAT | 1.3 |
| AGTGTT | 1.14 |
| AACAAG | 1.14 |
| GTTAAT | 1.07 |
| TTCCCG | 1.88 |
| CCACAA | 0.997 |
| TGACTA | 1.07 |
| TGTCGC | 0.96 |
| TAATTC | 1.38 |
